Results published in patent US20250265710A1, “NON-INVASIVE LASER SPECKLE IMAGING OF EXTRA-EMBRYONIC BLOOD VESSELS” (California Institute of Technology, priority 2024, published 2025).
At least one compound was matched to its structure with a doubt left.

System: chick embryonic heart
Details: lowest dose tested (<50 nmol), apart from initial drop during injection
Procedure: These drugs were injected through the shell ventral to chick embryos at a developmental HH stage between HH16-19. The needle was guided to the embryos by the LLSCI system in live view mode.
In one example, before imaging, the eggs are injected with a drug by implementing a live view mode to ascertain the position of the embryo's heart and inserted a needle into the eggshell and the drug was injected into the area ventral to the embryo in a volume of 25-150 μL. This may result in a hole in the eggshell having a diameter between 0.6 and 0.8 mm. The hole can be covered by transparent tape to ensure the continued development of the embryo. […]
To quantify and characterize the effects of injecting a drug solution onto the CAM, an LSCI system was used to extract four features from the blood vessels images and blood flow graphs. […]
In various examples, the length of the blood vessels may be calculated as the total length of the vessel skeleton in the blood vessel image. In various examples, the number of branches may be determined by counting the branch points connecting the blood vessels and isolated vessel segments in the blood vessel images. […] In various examples, the heart rate may be measured from the Fourier transform of the blood flow signal. […]

CCOC(=O)C1=C(COCCN)NC(C)=C(C(=O)OC)C1c1ccccc1Cl (stereo not shown) [Amlodipine]
heart rate course: remained constantly low
